doi:10.1101/2021.12.21.473566
Results are given in words; binding and its absence hold for the method and conditions named. In cells and extracts the contact can be indirect. These calls come from enrichment with a bait or labelling near it, and not all partners need be listed. For some assays here: A no says only that the protein was not detected with the bait. For some assays here: Tags and fused reporters may be left off the sequences shown.

How the values were obtained:
[1] = molecular target: SHP2-D425A-PafA-Myc (iPup Jurkat) (UniProt Q06124); assay: proximity labelling
[2] = molecular target: T1, PTP1B-D181A-PafA-Myc (iPup Jurkat) (UniProt P18031); assay: proximity labelling
T1 sequence: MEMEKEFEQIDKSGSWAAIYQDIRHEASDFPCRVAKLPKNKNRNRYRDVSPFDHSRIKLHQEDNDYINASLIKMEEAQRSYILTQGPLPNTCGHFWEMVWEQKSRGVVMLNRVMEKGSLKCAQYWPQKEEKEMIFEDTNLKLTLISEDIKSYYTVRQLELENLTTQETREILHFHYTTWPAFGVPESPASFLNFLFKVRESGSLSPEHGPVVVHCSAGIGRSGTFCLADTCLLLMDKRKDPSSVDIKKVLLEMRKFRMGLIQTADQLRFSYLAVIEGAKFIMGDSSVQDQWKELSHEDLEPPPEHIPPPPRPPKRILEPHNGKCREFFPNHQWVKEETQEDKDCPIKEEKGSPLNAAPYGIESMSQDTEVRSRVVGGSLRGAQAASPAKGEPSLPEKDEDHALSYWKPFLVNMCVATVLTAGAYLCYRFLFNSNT

binding [1]: binds
binding [2]: no binding
B1: THEMIS (endogenous, Jurkat) (protein, UniProt Q8N1K5 1-641)
chain: MALSLEEFVHSLDLRTLPRVLEIQAGIYLEGSIYEMFGNECCFSTGEVIKITGLKVKKIIAEICEQIEGCESLQPFELPMNFPGLFKIVADKTPYLTMEEITRTIHIGPSRLGHPCFYHQKDIKLENLIIKQGEQIMLNSVEEIDGEIMVSCAVARNHQTHSFNLPLSQEGEFYECEDERIYTLKEIVEWKIPKNRTRTVNLTDFSNKWDSTNPFPKDFYGTLILKPVYEIQGVMKFRKDIIRILPSLDVEVKDITDSYDANWFLQLLSTEDLFEMTSKEFPIVTEVIEAPEGNHLPQSILQPGKTIVIHKKYQASRILASEIRSNFPKRHFLIPTSYKGKFKRRPREFPTAYDLEIAKSEKEPLHVVATKAFHSPHDKLSSVSVGDQFLVHQSETTEVLCEGIKKVVNVLACEKILKKSYEAALLPLYMEGGFVEVIHDKKQYPISELCKQFRLPFNVKVSVRDLSIEEDVLAATPGLQLEEDITDSYLLISDFANPTECWEIPVGRLNMTVQLVSNFSRDAEPFLVRTLVEEITEEQYYMMRRYESSASHPPPRPPKHPSVEETKLTLLTLAEERTVDLPKSPKRHHVDITKKLHPNQAGLDSKVLIGSQNDLVDEEKERSNRGATAIAETFKNEKHQK
